Results: PMC9017934
No constants are given. Whether binding was seen depends on the method and setting. Some binding calls cover weakened binding; strength is not graded here.

Molecular target: T1, Mitogen-activated protein Kinase Kinase (MKK3), full length (human), P46734
T1 chain: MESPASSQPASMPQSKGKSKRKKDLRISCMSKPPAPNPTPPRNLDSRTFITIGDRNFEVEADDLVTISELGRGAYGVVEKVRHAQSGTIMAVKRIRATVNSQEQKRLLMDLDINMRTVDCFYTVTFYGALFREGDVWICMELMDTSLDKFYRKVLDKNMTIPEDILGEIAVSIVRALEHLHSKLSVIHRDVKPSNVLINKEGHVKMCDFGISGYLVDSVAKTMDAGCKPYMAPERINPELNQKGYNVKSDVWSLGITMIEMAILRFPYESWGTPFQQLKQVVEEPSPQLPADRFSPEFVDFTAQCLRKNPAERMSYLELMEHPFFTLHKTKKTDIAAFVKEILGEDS
Assay: SEC; Superdex 75 Increase 10/300 GL after His Trap; 50 mM Tris HCl pH 8, 150 mM NaCl, 0.25 mM TCEP; 4°C; molecular weights of the peaks estimated from a calibration curve of LMW standards; kinases from all strains except Arctic Express; both purified
Details: remark: other sources report otherwise

B1: Mitogen-activated protein Kinase Kinase (MKK3), full length, P46734-1 1-347 (enzyme)
chain: T1 chain
Question: How did the binding turn out when B1 was run?
Answer: Its binding is “binds”.
